PubChem BioAssay AID1671190 (National Center for Advancing Translational Sciences (NCATS), 2021)
In all, about 580,000 compounds went through this assay and about 6,100 (1.1%) were called active. Inconclusive results, whose numbers are uncertain, are shown with a selection of clear calls. Calls come from the whole dose curve; as a rule, active = well fitted inhibition curve with a large enough effect; inconclusive = small, poorly fitted or top-dose-only effect, or another doubt; inactive = no such curve, though single readings can be large or run the other way. Potencies beside an inconclusive call are fits to weak or partial responses and may not hold up.

Protein sequences, listed by entry. Tags and fused reporters are not part of them. Lines headed by an entry give the natural chain unless they say otherwise; changes in a name come on top.
UniProt P18054: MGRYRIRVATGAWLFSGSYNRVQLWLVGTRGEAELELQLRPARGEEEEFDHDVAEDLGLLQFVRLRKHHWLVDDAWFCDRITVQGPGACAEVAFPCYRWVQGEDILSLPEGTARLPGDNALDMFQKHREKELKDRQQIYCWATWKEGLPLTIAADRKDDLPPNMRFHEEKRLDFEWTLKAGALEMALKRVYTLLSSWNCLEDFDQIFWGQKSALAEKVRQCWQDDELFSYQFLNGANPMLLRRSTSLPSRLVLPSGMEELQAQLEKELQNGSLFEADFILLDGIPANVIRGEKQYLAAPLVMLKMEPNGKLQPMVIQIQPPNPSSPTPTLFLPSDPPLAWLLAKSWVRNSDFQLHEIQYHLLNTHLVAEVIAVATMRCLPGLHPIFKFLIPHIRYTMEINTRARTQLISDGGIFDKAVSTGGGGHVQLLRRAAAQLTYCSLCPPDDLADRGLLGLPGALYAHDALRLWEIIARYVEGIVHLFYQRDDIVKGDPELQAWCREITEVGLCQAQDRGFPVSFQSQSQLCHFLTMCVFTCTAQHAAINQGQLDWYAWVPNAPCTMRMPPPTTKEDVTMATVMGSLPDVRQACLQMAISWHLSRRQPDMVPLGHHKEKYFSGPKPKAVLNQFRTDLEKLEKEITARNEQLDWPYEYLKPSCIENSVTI

molecular target: Polyunsaturated fatty acid lipoxygenase ALOX12 (Homo sapiens) (UniProt P18054); assay: Primary qHTS assay for inhibitors of human arachidonate 12S-lipoxygenase (ALOX12): Round 2; conditions: purified 12hLO, xylenol orange hydroperoxide absorbance; series mostly up to 108 µM
Summary of the method: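 Purified human 12hLO at 150 nM in 25 mM Hepes, 0.01% Triton X-100, pH 7.0, preincubated 15 min at room temperature with compound. Reaction started with 40 uM arachidonic acid, 30 min at room temperature. Hydroperoxide measured by Fe-xylenol orange, 573/405 nm absorbance ratio.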
Potency is the fitted concentration of half-maximal effect.

Row | Compound | Potency
1 | CCN1CCCCC(=N/O)/C(=N/O)CCCC1 | inconclusive: 44.7 µM [inhibitor, partial curve]
2 | Nc1ccc2c(c1)C(=O)c1ccccc1-2 | inactive
3 | CS(=O)(=O)c1ccc2nc(NC(=O)CSCc3ccccc3)sc2c1 | inconclusive: 50.1 µM [inhibitor, partial curve, poor fit]
4 | CC(N)c1ccncc1 (stereo unspecified) | inconclusive: 35.5 µM [inhibitor, single point]
5 | COc1ccc(C(=S)NC2CCCCC2)cc1 | inconclusive: 50.1 µM [inhibitor, partial curve, poor fit]
6 | CCc1cc2c(CN3CCN(CC)CC3)cc(=O)oc2cc1O | inconclusive: 50.1 µM [inhibitor, partial curve, poor fit]
7 | CN(C)c1ccc(/C=N/NC(=O)C(c2ccccc2)c2ccccc2)cc1 | inactive
8 | Cc1ccc(C(=O)c2sc3nsc(C)c3c2N)cc1 | inconclusive: 5.62 µM [inhibitor, full curve, poor fit]
9 | Cc1ccc(C(=O)Nc2ccccc2C(=O)N2CC3(C)CC2CC(C)(C)C3)cc1 (stereo unspecified) | inconclusive: 28.2 µM [inhibitor, partial curve, poor fit]
10 | CC(=O)N[C@@H]1[C@H](O[C@@H]2c3ccc(c(Cl)c3)Oc3cc4cc(c3O[C@H]3O[C@H](CO)[C@@H](O)[C@H](O)[C@H]3NC(=O)CCCCCCCC(C)C)Oc3ccc(cc3Cl)C[C@H]3NC(=O)[C@H](N)c5ccc(O)c(c5)Oc5cc(O)cc(c5)[C@H](NC3=O)C(=O)N[C@H]4C(=O)N[C@H]3C(=O)N[C@@H]2C(=O)N[C@@H](C(=O)O)c2cc(O)cc(O[C@H]4O[C@H](CO)[C@@H](O)[C@H](O)[C@H]4O)c2-c2cc3ccc2O)O[C@H](CO)[C@@H](O)[C@@H]1O | inconclusive: 3.85 µM [inhibitor, full curve, poor fit]
11 | CCc1nnc(NC(=O)CSCc2cc(=O)n3nc(C)sc3n2)s1 | inactive
12 | COc1cccc(-c2c(NC(=O)c3ccc([N+](=O)[O-])cc3)oc3ccccc3c2=O)c1 | inconclusive: 50.1 µM [inhibitor, partial curve, poor fit]
13 | COc1ccc(NC(=O)/C(Cl)=C(/Cl)S(=O)Cc2ccc(Cl)cc2)cn1 (stereo unspecified) | inconclusive: 56.2 µM [inhibitor, partial curve, poor fit]
14 | Cc1ccc([N+](=O)[O-])cc1NC(=O)CN(C(=O)c1ccc(Cl)cc1)C1CCCCC1 | inactive
15 | Cc1ccc(N(C)S(=O)(=O)c2cccc(C(=O)NCC(c3ccco3)N3CCCC3)c2)cc1 (stereo unspecified) | inconclusive: 35.5 µM [inhibitor, partial curve, poor fit]
16 | CC(=O)NC1(C)CN(Cc2ccc(-c3cccc(F)c3)s2)C1 | inconclusive: 28.2 µM [inhibitor, full curve, poor fit]
17 | COCCn1c(-c2ccc(Cl)cc2)cnc1SCC(=O)NCc1cccs1 | inactive
18 | O=S(=O)(Cc1ccccc1)Nc1ccccc1 | inconclusive: 4.47 µM [inhibitor, full curve, poor fit]
19 | CCc1ccccc1CN1CCC2(CC1)Cc1ccccc1CNC2=O | inconclusive: 35.5 µM [inhibitor, partial curve, poor fit]
20 | COc1ccccc1CNc1nc(-c2ccc3c(c2)OCO3)nc2ccccc12 | inconclusive: 39.8 µM [inhibitor, partial curve, poor fit]
21 | CCc1ccc2c(c1)NC(=O)C2(C)Cc1ccccc1Cl (stereo unspecified) | inconclusive: 126 µM [inhibitor, partial curve, poor fit]

Structural class: those above containing four or more nitrogen atoms.
Row | Compound | Potency
10 | CC(=O)N[C@@H]1[C@H](O[C@@H]2c3ccc(c(Cl)c3)Oc3cc4cc(c3O[C@H]3O[C@H](CO)[C@@H](O)[C@H](O)[C@H]3NC(=O)CCCCCCCC(C)C)Oc3ccc(cc3Cl)C[C@H]3NC(=O)[C@H](N)c5ccc(O)c(c5)Oc5cc(O)cc(c5)[C@H](NC3=O)C(=O)N[C@H]4C(=O)N[C@H]3C(=O)N[C@@H]2C(=O)N[C@@H](C(=O)O)c2cc(O)cc(O[C@H]4O[C@H](CO)[C@@H](O)[C@H](O)[C@H]4O)c2-c2cc3ccc2O)O[C@H](CO)[C@@H](O)[C@@H]1O | inconclusive: 3.85 µM [inhibitor, full curve, poor fit]
11 | CCc1nnc(NC(=O)CSCc2cc(=O)n3nc(C)sc3n2)s1 | inactive

Later entries

Row | Compound | Potency
22 | Cc1ccc(NC(=O)Cn2cc(S(=O)(=O)NC(C)C)c(S(=O)(=O)NC(C)C)c2)cc1Cl | inconclusive: 50.1 µM [inhibitor, partial curve, poor fit]
23 | Cc1c(CN2CCC(CO)(CCOc3ccccc3)CC2)[nH]c2c(Cl)cccc12 | inconclusive: 50.1 µM [inhibitor, partial curve, poor fit]
24 | CCO[C@@H]1OC(C(=O)Nc2ccccc2)=C[C@H](c2csc3ccccc23)[C@H]1CCCO | inconclusive: 100 µM [inhibitor, single point]
25 | Cc1[nH]n(-c2nc3ccccc3[nH]2)c(=O)c1CCC(C)C | inconclusive: 28.2 µM [inhibitor, partial curve, poor fit]
26 | COc1ccc2[nH]c3c(c2c1)CCN1C(=O)N([C@@H](C)C(=O)NCC2CCCO2)C(=O)[C@]31C (stereo partly specified) | inactive
27 | Cc1cc2ccccc2n1-c1ccc(C(=O)N2CCC(C(=O)NCc3ccc(F)cc3)CC2)s1 | inactive
28 | O=C1[C@H]2[C@@H](c3ccc(C(F)(F)F)cc3)N[C@]3(CCCN(Cc4ccc(Br)cc4)C3=O)[C@H]2C(=O)N1Cc1ccccc1 | inconclusive: 50.1 µM [inhibitor, partial curve, poor fit]
29 | CCc1nc(SCc2ccc(C(=O)OC)o2)c2c(=O)n(C)c(=O)n(C)c2n1 | inactive
30 | Cc1[nH]c2c(Cl)cccc2c1C | inconclusive: 141 µM [inhibitor, partial curve, poor fit]
31 | CCn1c(=O)n(CC)c2cc(S(=O)(=O)c3ccccc3)c(NC(=O)COc3ccccc3C)cc21 | inconclusive: 3.55 µM [inhibitor, single point]
32 | Cc1nc(SCC(=O)Nc2ccc(F)cc2)c(C#N)c(C)c1CC(=O)c1ccc(Br)cc1 | inactive
33 | Cc1c(NC(=S)N/C(=N/S(=O)(=O)c2ccccc2)c2ccccc2)c(=O)n(-c2ccccc2)n1C | inconclusive: 112 µM [inhibitor, single point]
34 | CCc1cc2c(N)c(C(=O)c3ccccc3)sc2nc1C | inconclusive: 39.8 µM [inhibitor, partial curve, poor fit]
35 | CCCCOC(=O)Nc1ccc(S(=O)(=O)Nc2ccc([N+](=O)[O-])cc2)cc1 | inconclusive: 25.1 µM [inhibitor, full curve]
36 | O=C(/C=C/c1ccco1)Nc1ccc(Cl)c(-c2nc3cc(Cl)ccc3o2)c1 | inconclusive: 44.7 µM [inhibitor, partial curve, poor fit]
37 | C[C@@H]1CCCCO[C@@H](CN(C)S(C)(=O)=O)[C@@H](C)CN([C@H](C)CO)C(=O)c2cc(N(C)C)ccc2O1 | inconclusive: 56.2 µM [inhibitor, partial curve, poor fit]
38 | Cc1cc(C(=O)CN2C(=O)C(=O)N(Cc3ccccc3)C2=O)c(C)n1-c1ccc2c(c1)OCCO2 | inconclusive: 56.2 µM [inhibitor, partial curve, poor fit]
39 | Cc1ccc(N/N=C(\C#N)C(=N)N2CCCCC2)cc1 | inconclusive: 22.4 µM [inhibitor, partial curve, poor fit]
40 | Clc1ccccc1-c1nnc2ccc(SCc3ccco3)nn12 | inconclusive: 44.7 µM [inhibitor, partial curve, poor fit]
41 | COC(=O)C1=C(N)OC2=C(C(=O)CC(C)(C)C2)C1c1ccc(Cl)cc1Cl (stereo unspecified) | inactive
42 | CS(=O)(=O)Nc1cccc(-c2cncnc2Nc2ccccc2)c1 | inconclusive: 44.7 µM [inhibitor, partial curve, poor fit]

Row | Compound | Potency
43 | CCN(CCn1cccn1)C(=O)CCc1nnc(-c2ccccc2)o1 | inconclusive: 112 µM [inhibitor, single point]
44 | COc1cccn(CC(=O)N(C)Cc2c(C)noc2C)c1=O | inactive
45 | O=C(O)COc1ccccc1CN1CC[C@H]2NCCC[C@]2(C(=O)O)C1 | inconclusive: 50.1 µM [inhibitor, partial curve, poor fit]
46 | CC(=O)c1ccc(NC(=O)c2ccc(CN3C(=O)CCn4nc(C)cc43)cc2)cc1 | inconclusive: 126 µM [inhibitor, partial curve, poor fit]
47 | Cc1ccsc1C1C(C#N)=C(N)OC2=C1C(=O)CC(C)C2 (stereo unspecified) | inactive
48 | CC(=O)Nc1cc(-c2cccc(C(=O)N(C)C)c2)cn2c(-c3cccc(C(F)(F)F)c3)cnc12 | inactive
49 | NCC(=O)N1CCC(n2nccc2NC(=O)c2ccc3c(c2)OCO3)CC1 | inactive
50 | Cc1ccc(S(=O)(=O)NC[C@H]2O[C@@H](n3cnc4c(N)ncnc43)[C@H](O)[C@@H]2O)s1 | inconclusive: 89.1 µM [inhibitor, single point]
51 | O=S(=O)(Nc1ccc(Br)cc1)c1ccc2nc(-c3ccccc3)[nH]c2c1 | inconclusive: 2.24 µM [inhibitor, full curve, poor fit]
52 | Cc1ccc(-c2nnn(CC(=O)N(CCN3CCOCC3)C(C(=O)NC(C)(C)C)c3ccco3)n2)cc1 (stereo unspecified) | inactive
53 | CCSc1nnc(C(C)NS(=O)(=O)c2cccc(Cl)c2C)n1C (stereo unspecified) | inactive
54 | Nc1nc(N)c(Cc2ccc(Cl)cc2Cl)c(N)n1 | inactive
55 | Cc1cccc(-c2cc3nc(-c4ccccc4)cc(N4CCC5(CC4)OCCO5)n3n2)c1 | inactive
56 | O=C1CC(N2CCCc3ccccc32)C(=O)N1c1ccccc1 (stereo unspecified) | inconclusive: 100 µM [inhibitor, single point]
57 | Cc1ccc(N2C(=O)C3C4C=CC(CNC(=S)Nc5ccc(F)cc5)(O4)C3C2=O)cc1 (stereo unspecified) | inconclusive: 5.01 µM [inhibitor, full curve, poor fit]
58 | CC(=O)/C(C#N)=C1\NC(=O)C(Cc2ccccc2C)S1 (stereo unspecified) | inconclusive: 7.94 µM [inhibitor, partial curve, poor fit]
59 | COc1cc(NC(=O)Nc2nc(C(N)C(C)C)cs2)cc(OC)c1OC (stereo unspecified) | inactive
60 | CN(C)c1cc(N2CCCC(NC(=O)Cc3ccccc3F)C2)ncn1 (stereo unspecified) | inactive
61 | COc1ccc(NC(=O)/C(Cl)=C(/Cl)S(=O)Cc2ccccc2)cn1 (stereo unspecified) | inconclusive: 44.7 µM [inhibitor, partial curve, poor fit]
